Measured values taken from publication PMC7012618.

Amino acid sequences for entries named in this document (tags omitted).
UniProt P09874: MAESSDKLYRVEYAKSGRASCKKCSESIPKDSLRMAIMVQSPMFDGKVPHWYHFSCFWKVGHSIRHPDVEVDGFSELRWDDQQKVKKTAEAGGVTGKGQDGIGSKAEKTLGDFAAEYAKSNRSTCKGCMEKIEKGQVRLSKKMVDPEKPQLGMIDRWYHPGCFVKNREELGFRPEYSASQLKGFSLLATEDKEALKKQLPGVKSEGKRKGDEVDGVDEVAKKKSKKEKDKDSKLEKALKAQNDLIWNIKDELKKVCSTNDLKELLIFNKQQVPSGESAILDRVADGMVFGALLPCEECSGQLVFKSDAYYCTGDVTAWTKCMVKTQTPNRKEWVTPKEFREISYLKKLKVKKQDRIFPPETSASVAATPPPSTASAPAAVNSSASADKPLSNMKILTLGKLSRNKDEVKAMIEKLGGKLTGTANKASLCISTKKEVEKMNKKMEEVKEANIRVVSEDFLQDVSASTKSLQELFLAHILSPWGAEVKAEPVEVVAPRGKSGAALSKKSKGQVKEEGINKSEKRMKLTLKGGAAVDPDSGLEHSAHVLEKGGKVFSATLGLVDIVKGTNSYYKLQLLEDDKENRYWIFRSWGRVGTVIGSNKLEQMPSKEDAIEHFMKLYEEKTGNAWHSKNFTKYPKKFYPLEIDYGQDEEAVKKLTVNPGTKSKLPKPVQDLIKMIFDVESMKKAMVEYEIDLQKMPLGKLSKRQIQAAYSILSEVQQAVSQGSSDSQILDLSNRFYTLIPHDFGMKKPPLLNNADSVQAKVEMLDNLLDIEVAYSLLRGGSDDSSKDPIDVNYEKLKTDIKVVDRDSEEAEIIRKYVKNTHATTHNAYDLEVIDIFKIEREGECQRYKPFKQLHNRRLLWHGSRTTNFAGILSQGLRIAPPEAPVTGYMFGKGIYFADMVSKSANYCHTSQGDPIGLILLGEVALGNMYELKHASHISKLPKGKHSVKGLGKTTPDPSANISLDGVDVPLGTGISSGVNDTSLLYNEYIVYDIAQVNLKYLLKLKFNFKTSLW

Target: MBP-Kif2C (human Kif2C expressed with MBP-tag) (human) (UniProt Q99661)
Assay: affinity purification with mass spectrometry; MBP-Kif2C on amylose beads or blank beads incubated in lysates of doxorubicin-treated HeLa cells; pull-down samples analysed by mass spectrometry; only the target purified

Question: Which binding does the source give for PARP1 (from UniProt P09874 1-1014) here?
Answer: binds

Results are given in words; binding and its absence hold for the method and conditions named. Binding seen in cells or lysates may run through a third protein. Here binding means that the protein was enriched with, or labelled near, the bait; the list need not be complete. Where a sequence is shown, tags or fusion partners need not be part of it.
